# Source: publication PMC6961209
# These are yes or no findings as the source states them, for the method shown. A result given as binding can be weak or reduced; the word gives no strength.
# B1: Recombinant mouse MKLP2 residues 25-520 including the motor domain and neck-linker (domain or fragment, UniProt P97329 25-520)
# chain: ESTAADLRSVVRKDLLSDCSVISASLEDKQALLEDTSEKVKVYLRIRPFLTSELDRQEDQGCVCIENTETLVLQAPKDSFALKSNERGVGQATHKFTFSQIFGPEVGQVAFFNLTMKEMVKDVLKGQNWLIYTYGVTNSGKTYTIQGTSKDAGILPQSLALIFNSLQGQLHPTPDLKPLLSNEVIWLDSKQIRQEEMKKLSLLIGGLQEEELSTSVKKRVHTESRIGASNSFDSGVAGLSSTSQFTSSSQLDETSQLWAQPDTVPVSVPADIRFSVWISFFEIYNELLYDLLEPPSHQHKRQTLRLCEDQNGNPYVKDLNWIHVRDVEEAWKLLKVGRKNQSFASTHMNQQSSRSHSIFSIRILHLQGEGDIVPKISELSLCDLAGSERCKHQKSGERLKEAGNINTSLHTLGRCIAALRQNQQNRSKQNLIPFRDSKLTRVFQGFFTGRGRSCMIVNVNPCASTYDETLHAAKFSALASQLVHAPPVHLGIPSLH
# Molecular target: Microtubules polymerised from bovine tubulin (Cytoskeleton Inc.) (bovine)
# Assay: cryo-EM structure; paclitaxel-stabilised bovine tubulin MTs adhered to holey carbon grids, washed once in 60 uM MKLP2-MD in BRB20 with 2 mM ADP + AlF4, room temperature; 13 PF reconstruction with MiRP; both purified
binder,measurement,value
B1,binding,binds
